Measured values taken from PubChem BioAssay AID248 (DTP/NCI, 2004).
The list is a part of this screen's results and no random one: it is rich in T/C values a quarter to a half above the control, in often repeated tests (any T/C) and in doses without a T/C. Other doses and runs of a compound stand elsewhere. T/C: endpoint of the treated group in % of that of the vehicle group. Some entries give survivors of the animals treated and no T/C: the source files T/C as zero there, which appears to mark a toxic dose or a test without result, not a measured value. Some survivor counts are full or nearly so, which does not show that the dose was tolerated: the source hardly ever lists a survival T/C far under the control, and the zero likely stands for such cases as well. Counts of survivors are from the toxicity check (mostly the fifth day) where no day follows; animals may have died later. Schedules are NCI's codes, taken here to give the interval after Q, in days (D) or hours (H), and the number of doses after X. Some doses were run more than once; the results are listed from low to high. Some molecules as drawn cover several salts, stereoisomers or complexes of the source; a dose is that of the sample tested. Where survival is the endpoint, this PubChem deposit counts one and a half times the control or more as active, and values a quarter to a half above the control carry no call in these data; other NCI protocols may use other cut-offs. Some T/C values carry the count of animals alive at the toxicity check (mostly the fifth day); where none is given, no animal had died by that day.

System: L1210 leukemia ip in BDF1 mice, survival T/C
Test: NCI In Vivo Anticancer Drug Screen. Data for tumor model L1210 Leukemia (intraperitoneal) in B6D2F1 (BDF1) mice
Settings: T/C endpoint: mean survival time, higher T/C = longer survival
[1] = dose: 400.0 mg/kg/injection, schedule: Q04DX003 (ip), vehicle: saline
[2] = dose: 400.0 mg/kg/injection, schedule: Q01DX009 (ip), vehicle: Klucel (hydroxypropylcellulose) (HPC)
[3] = dose: 200.0 mg/kg/injection, schedule: Q01DX009 (ip), vehicle: saline with Tween-80
[4] = dose: 400.0 mg/kg/injection, schedule: Q01DX009 (ip), vehicle: saline with Tween-80
[5] = dose: 200.0 mg/kg/injection, schedule: Q01DX001 (ip), vehicle: Klucel (hydroxypropylcellulose) (HPC)
[6] = dose: 400.0 mg/kg/injection, schedule: Q01DX001 (ip), vehicle: Klucel (hydroxypropylcellulose) (HPC)
[7] = dose: 400.0 mg/kg/injection, schedule: Q01DX001 (ip), vehicle: saline
[8] = dose: 40.0 mg/kg/injection, schedule: Q01DX001 (ip), vehicle: carboxymethylcellulose (CMC)
[9] = dose: 100.0 mg/kg/injection, schedule: Q04DX003 (ip), vehicle: Klucel (hydroxypropylcellulose) (HPC)
[10] = dose: 200.0 mg/kg/injection, schedule: Q04DX003 (ip), vehicle: Klucel (hydroxypropylcellulose) (HPC)
[11] = dose: 400.0 mg/kg/injection, schedule: Q04DX003 (ip), vehicle: Klucel (hydroxypropylcellulose) (HPC)
[12] = dose: 400.0 mg/kg/injection, schedule: Q04DX002 (ip), vehicle: Klucel (hydroxypropylcellulose) (HPC)
[13] = dose: 100.0 mg/kg/injection, schedule: Q04DX002 (ip), vehicle: Klucel (hydroxypropylcellulose) (HPC)
[14] = dose: 200.0 mg/kg/injection, schedule: Q04DX002 (ip), vehicle: Klucel (hydroxypropylcellulose) (HPC)

C1=NCCCN1
survivor count (dose: 200.0 mg/kg/injection, schedule: Q01DX009 (ip), vehicle: saline): 5 of 6
survivor count [1]: 2 of 6

O=S(=O)(OCC(F)(F)F)c1ccccc1
survivor count [2]: 0 of 6

CCC(=O)Oc1ccc(C(=O)O)cc1
survivor count (dose: 100.0 mg/kg/injection, schedule: Q01DX009 (ip), vehicle: saline with Tween-80): 0 of 6
survivor count [3]: 0 of 6
survivor count [4]: 0 of 6

C[P+]1(CCc2ccc(Cl)cc2)CC(Br)C(Br)C1 (stereo not given)
survivor count [5]: 0 of 6
survivor count [6]: 0 of 6

Cc1cc2nncn2c2ccccc12
survivor count [7]: 2 of 4

Cc1c2oc3c(C)ccc(C(=O)NCCC(C)C)c3nc-2c(C(=O)NCCC(C)C)c(N)c1=O
survivor count (dose: 20.0 mg/kg/injection, schedule: Q01DX001 (ip), vehicle: carboxymethylcellulose (CMC)): 6 of 6
survivor count [8]: 6 of 6
survivor count (dose: 75.0 mg/kg/injection, schedule: Q01DX001 (ip), vehicle: other): 6 of 6
survivor count (dose: 150.0 mg/kg/injection, schedule: Q01DX001 (ip), vehicle: other): 4 of 6
survivor count (dose: 300.0 mg/kg/injection, schedule: Q01DX001 (ip), vehicle: other): 2 of 6

CC(C)(SCCc1ccc([N+](=O)[O-])cc1)C(N)C(=O)O (stereo not given)
survivor count [9]: 1 of 6
survivor count [10]: 0 of 6
survivor count [11]: 0 of 6

Cc1ccc(Nc2nc(N)nc(N)c2Cl)cc1
survivor count [3]: 3 of 3

O=C(Oc1ccccc1Cl)c1ccccc1
survivor count [4]: 2 of 6

OCC[CH2][Pb]([c]1ccccc1)([c]1ccccc1)[c]1ccccc1
survivor count (dose: 12.5 mg/kg/injection, schedule: Q04DX003 (ip), vehicle: Klucel (hydroxypropylcellulose) (HPC)): 6 of 6
survivor count (dose: 25.0 mg/kg/injection, schedule: Q04DX003 (ip), vehicle: Klucel (hydroxypropylcellulose) (HPC)): 3 of 6
survivor count [9]: 5 of 6
survivor count [10]: 0 of 6
survivor count [11]: 0 of 6

CC(C)NC(C)c1c[nH]c2ccccc12 (stereo not given)
survivor count [9]: 1 of 6
survivor count [10]: 0 of 6
survivor count [11]: 0 of 6

CCc1ccc2c(c1)N(CCCN(CCCl)CCCl)c1ccccc1S2
survivor count (dose: 25.0 mg/kg/injection, schedule: Q01DX009 (ip), vehicle: saline with Tween-80): 2 of 6
survivor count (dose: 50.0 mg/kg/injection, schedule: Q01DX009 (ip), vehicle: saline with Tween-80): 0 of 6
survivor count (dose: 75.0 mg/kg/injection, schedule: Q04DX003 (ip), vehicle: alcohol): 6 of 6
survivor count (dose: 113.0 mg/kg/injection, schedule: Q04DX003 (ip), vehicle: alcohol): 3 of 6
survivor count (dose: 170.0 mg/kg/injection, schedule: Q04DX003 (ip), vehicle: alcohol): 3 of 6

CC[n+]1ccc(Nc2ccc(/C=C/c3ccc4cc(Nc5cc[n+](CC)cc5)ccc4[n+]3CC)cc2)cc1
T/C (dose: 5.0 mg/kg/injection, schedule: Q01DX009 (ip), vehicle: saline): 127 and 147 % of control
T/C (dose: 10.0 mg/kg/injection, schedule: Q01DX009 (ip), vehicle: saline): 144 % of control
survivor count (dose: 20.0 mg/kg/injection, schedule: Q01DX009 (ip), vehicle: saline): 0 of 6 and 1 of 6

CSc1nccc(=O)[nH]1
survivor count (dose: 200.0 mg/kg/injection, schedule: Q01DX009 (ip), vehicle: Klucel (hydroxypropylcellulose) (HPC)): 2 of 6
survivor count [11]: 0 of 6

COCC/C(COC)=N\N=C(/CCOC)COC
survivor count [2]: 2 of 6

Cc1ccc(/C=C2\CC(C)(C)c3ccccc3C2=O)cc1
survivor count (dose: 100.0 mg/kg/injection, schedule: Q04DX003 (ip), vehicle: saline with Tween-80): 0 of 6

O=C1OC2(c3ccc(O)cc3Oc3cc(O)ccc32)C2C3CCC(O3)C12 (stereo not given)
survivor count [12]: 0 of 3

CCN(CCNC(=O)Nc1ccccc1OC)c1ccccc1
survivor count [13]: 0 of 6
survivor count [14]: 0 of 6
survivor count [12]: 0 of 6

COC(=O)[CH]([Hg][O]C(C)=O)C(OC)c1ccccc1 (stereo not given)
survivor count (dose: 12.0 mg/kg/injection, schedule: Q04DX002 (ip), vehicle: carboxymethylcellulose (CMC)): 3 of 3
survivor count (dose: 12.5 mg/kg/injection, schedule: Q04DX002 (ip), vehicle: carboxymethylcellulose (CMC)): 1 of 3
survivor count (dose: 25.0 mg/kg/injection, schedule: Q04DX002 (ip), vehicle: carboxymethylcellulose (CMC)): 2 of 3
survivor count (dose: 50.0 mg/kg/injection, schedule: Q04DX002 (ip), vehicle: carboxymethylcellulose (CMC)): 0 of 3
survivor count [13]: 0 of 3
survivor count [14]: 0 of 3
survivor count [12]: 0 of 3

N#CCc1nc2ccccc2[nH]1
survivor count [5]: 1 of 3
survivor count [6]: 0 of 3
survivor count [11]: 1 of 6

OCc1nccn1Cc1ccccc1
survivor count (dose: 400.0 mg/kg/injection, schedule: Q01DX009 (ip), vehicle: saline): 0 of 6
survivor count (dose: 400.0 mg/kg/injection, schedule: Q01DX009 (ip), vehicle: water): 1 of 6

Cc1nc(N)c2nonc2n1
survivor count [3]: 6 of 6
survivor count [4]: 3 of 6

ON(C(=Nc1ccccc1)c1ccccc1)c1ccccc1
survivor count (dose: 200.0 mg/kg/injection, schedule: Q01DX001 (ip), vehicle: saline): 0 of 4
survivor count [7]: 0 of 4

NNC(=O)CNc1cc(Cl)cc(Cl)c1
survivor count (dose: 100.0 mg/kg/injection, schedule: Q04DX002 (ip), vehicle: carboxymethylcellulose (CMC)): 3 of 3
T/C (dose: 200.0 mg/kg/injection, schedule: Q04DX002 (ip), vehicle: carboxymethylcellulose (CMC)): 133 % of control
survivor count (dose: 400.0 mg/kg/injection, schedule: Q01DX001 (ip), vehicle: carboxymethylcellulose (CMC)): 0 of 6
survivor count (dose: 400.0 mg/kg/injection, schedule: Q01DX009 (ip), vehicle: carboxymethylcellulose (CMC)): 6 of 6
survivor count [12]: 0 of 3
survivor count (dose: 400.0 mg/kg/injection, schedule: Q04DX002 (ip), vehicle: carboxymethylcellulose (CMC)): 2 of 3 and 3 of 3
survivor count (dose: 400.0 mg/kg/injection, schedule: Q04DX003 (ip), vehicle: carboxymethylcellulose (CMC)): 1 of 6

C#CCSC(=N)N
survivor count (dose: 100.0 mg/kg/injection, schedule: Q01DX009 (ip), vehicle: saline): 0 of 6
survivor count (dose: 200.0 mg/kg/injection, schedule: Q04DX003 (ip), vehicle: saline): 0 of 6
survivor count [1]: 0 of 6

OC1CSC1.[Cl][Hg][Cl]
survivor count [8]: 0 of 4
survivor count (dose: 80.0 mg/kg/injection, schedule: Q01DX001 (ip), vehicle: carboxymethylcellulose (CMC)): 0 of 4

N#CCC(=O)NCCc1ccccn1
survivor count (dose: 200.0 mg/kg/injection, schedule: Q04DX002 (ip), vehicle: saline with Tween-80): 0 of 3
survivor count (dose: 400.0 mg/kg/injection, schedule: Q04DX002 (ip), vehicle: saline with Tween-80): 0 of 3

Nc1cc(Cl)ccc1N1CCCC1
survivor count [1]: 3 of 6

Nc1ccc2c(c1)-n1cccc1C2=O
survivor count [11]: 1 of 3

CC(C)C1=CC2=CCC3C(C)(C#N)CCCC3(C)C2CC1CC#N (stereo not given)
survivor count (dose: 200.0 mg/kg/injection, schedule: Q04DX003 (ip), vehicle: saline with Tween-80): 6 of 6

CC(=O)Nc1cc(Cl)c2[nH]cnc2n1
T/C [5]: 125 % of control [4 of 6 alive]
survivor count [6]: 0 of 6
survivor count (dose: 400.0 mg/kg/injection, schedule: Q04DX003 (ip), vehicle: water): 2 of 6

O=C(O)CC[n+]1c(/C=C/c2cc(Br)c(O)c(Br)c2)sc2ccccc21
survivor count (dose: 400.0 mg/kg/injection, schedule: Q04DX003 (ip), vehicle: saline sonified): 3 of 6
